# The supplement of paper PMC8728848
# This is one part of the list.
# Assays:
# Assay in all cases: glycan array binding signal (z-score within array); higher = stronger binding
# Conditions in all cases: glycan notation: IUPAC condensed, linker removed
# Gal6S(b1-4)Glc6S = molecular target: Gal6S(b1-4)Glc6S
# Summary of the method: (§1)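 Glycan array data were curated from 3228 arrays in the Consortium for Functional Glycomics database and kept only where the protein sequence was available. Glycan names were converted to IUPAC-condensed notation, and columns mapping to the same glycan were averaged. The binding signal is a within-array Z-score, averaged across arrays of the same protein sequence at different concentrations or buffers and across linkers. Negative Z-scores can be read as non-binding.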
# Gal6S(b1-4)GlcNAc = molecular target: Gal6S(b1-4)GlcNAc
# Summary of the method: as §1
# Gal6S(b1-4)GlcNAc6S = molecular target: Gal6S(b1-4)GlcNAc6S
# Summary of the method: as §1
# GalNAc(a1-3)Gal = molecular target: GalNAc(a1-3)Gal
# Summary of the method: as §1
# GalNAc(a1-3)GalNAc = molecular target: GalNAc(a1-3)GalNAc
# Summary of the method: as §1
# [1] = molecular target: GalNAc(a1-3)GalNAc(b1-3)Gal(a1-4)Gal(b1-4)Glc
# Summary of the method: as §1
# [2] = molecular target: GalNAc(a1-3)GalNAc(b1-3)Gal(a1-4)Gal(b1-4)GlcNAc
# Summary of the method: as §1
# GalNAc(b1-3)Gal = molecular target: GalNAc(b1-3)Gal
# Summary of the method: as §1
# [3] = molecular target: GalNAc(b1-3)Gal(a1-4)Gal(b1-4)GlcNAc
# Summary of the method: as §1
# [4] = molecular target: GalNAc(b1-3)Gal(a1-4)Gal(b1-4)GlcNAc(b1-3)Gal(b1-4)Glc
# Summary of the method: as §1
# [5] = molecular target: GalNAc(b1-3)Gal(a1-6)Gal(b1-4)Glc
# Summary of the method: as §1
# GalNAc(b1-3)GalNAc = molecular target: GalNAc(b1-3)GalNAc
# Summary of the method: as §1
# GalNAc(b1-3)GlcNAc = molecular target: GalNAc(b1-3)GlcNAc
# Summary of the method: as §1
# GalNAc(b1-4)Gal(b1-4)Glc = molecular target: GalNAc(b1-4)Gal(b1-4)Glc
# Summary of the method: as §1
# GalNAc(b1-4)GlcNAc = molecular target: GalNAc(b1-4)GlcNAc
# Summary of the method: as §1
# [6] = molecular target: GalNAc(b1-4)GlcNAc(b1-2)Man
# Summary of the method: as §1
# [7] = molecular target: GalNAc(b1-4)GlcNAc(b1-2)Man(a1-3)[GalNAc(b1-4)GlcNAc(b1-2)Man(a1-6)]Man(b1-4)GlcNAc(b1-4)GlcNAc
# Summary of the method: as §1
# [8] = molecular target: GalNAc(b1-4)GlcNAc(b1-3)GalNAc(b1-4)GlcNAc
# Summary of the method: as §1
# GalNAc(b1-4)GlcNAc6S = molecular target: GalNAc(b1-4)GlcNAc6S
# Summary of the method: as §1
# GalNAc(b1-6)GalNAc = molecular target: GalNAc(b1-6)GalNAc
# Summary of the method: as §1
# GalNAc3S(b1-4)GlcNAc = molecular target: GalNAc3S(b1-4)GlcNAc
# Summary of the method: as §1
# GalNAc3S(b1-4)GlcNAc3S = molecular target: GalNAc3S(b1-4)GlcNAc3S
# Summary of the method: as §1
# [9] = molecular target: GalNAc3S(b1-4)[Fuc(a1-3)]GlcNAc
# Summary of the method: as §1
# GalNAc4S6S(b1-4)GlcNAc = molecular target: GalNAc4S6S(b1-4)GlcNAc
# Summary of the method: as §1
# GalNAc6S(b1-4)GlcNAc = molecular target: GalNAc6S(b1-4)GlcNAc
# Summary of the method: as §1
# Glc(a1-4)Glc = molecular target: Glc(a1-4)Glc
# Summary of the method: as §1
# [10] = molecular target: Glc(a1-4)Glc(a1-4)Glc(a1-4)Glc
# Summary of the method: as §1
# Glc(a1-6)Glc(a1-6)Glc = molecular target: Glc(a1-6)Glc(a1-6)Glc
# Summary of the method: as §1
# [11] = molecular target: Glc(a1-6)Glc(a1-6)Glc(a1-6)Glc
# Summary of the method: as §1
# Glc(b1-4)Glc = molecular target: Glc(b1-4)Glc
# Summary of the method: as §1
# Glc(b1-6)Glc = molecular target: Glc(b1-6)Glc
# Summary of the method: as §1
# GlcA(b1-3)Gal = molecular target: GlcA(b1-3)Gal
# Summary of the method: as §1
# GlcA(b1-3)GlcNAc = molecular target: GlcA(b1-3)GlcNAc
# Summary of the method: as §1
# GlcA(b1-6)Gal = molecular target: GlcA(b1-6)Gal
# Summary of the method: as §1
# [12] = molecular target: GlcA3S(b1-3)Gal(b1-4)GlcNAc(b1-2)Man
# Summary of the method: as §1
# [13] = molecular target: GlcA3S(b1-3)Gal(b1-4)GlcNAc(b1-3)Gal(b1-4)Glc
# Summary of the method: as §1
# [14] = molecular target: GlcNAc(a1-3)Gal(b1-4)GlcNAc
# Summary of the method: as §1
# [15] = molecular target: GlcNAc(a1-4)Gal(b1-3)GlcNAc
# Summary of the method: as §1
# [16] = molecular target: GlcNAc(a1-4)Gal(b1-4)GalNAc
# Summary of the method: as §1
# [17] = molecular target: GlcNAc(a1-4)Gal(b1-4)GlcNAc
# Summary of the method: as §1
# [18] = molecular target: GlcNAc(a1-4)Gal(b1-4)GlcNAc(b1-3)Gal(b1-4)Glc
# Summary of the method: as §1
# [19] = molecular target: GlcNAc(a1-4)Gal(b1-4)GlcNAc(b1-3)Gal(b1-4)GlcNAc
# Summary of the method: as §1
# [20] = molecular target: GlcNAc(a1-4)Gal(b1-4)GlcNAc(b1-3)Gal(b1-4)GlcNAc(b1-3)Gal(b1-4)GlcNAc
# Summary of the method: as §1
# [21] = molecular target: GlcNAc(a1-4)Gal(b1-4)GlcNAc(b1-3)Gal(b1-4)[Fuc(a1-3)]GlcNAc(b1-3)Gal(b1-4)[Fuc(a1-3)]GlcNAc
# Summary of the method: as §1
# [22] = molecular target: GlcNAc(a1-6)Gal(b1-4)GlcNAc
# Summary of the method: as §1
binder,measurement,setting,value
"YghJ (Escherichia coli), E3PJ90 (protein) MNKKFKYKKSLLAAILSATLLAGCDGGGSGSSSDTPPVDSGTGSLPEVKPDPTPNPEPTPEPTPDPEPTPEPIPDPEPTPEPEPEPVPTKTGYLTLGGSQRVTGATCNGESSDGFTFKPGEDVTCVAGNTTIATFNTQSEAARSLRAVEKVSFSLEDAQELAGSDDKKSNAVSLVTSSNSCPANTEQVCLTFSSVIESKRFDSLYKQIDLAPEEFKKLVNEEVENNAATDKAPSTHTSPVVPVTTPGTKPDLNASFVSANAEQFYQYQPTEIILSEGRLVDSQGYGVAGVNYYTNSGRGVTGENGEFSFSWGEAISFGIDTFELGSVRGNKSTIALTELGDEVRGANIDQLIHRYSTTGQNNTRVVPDDVRKVFAEYPNVINEIINLSLSNGATLGEGEQVVNLPNEFIEQFNTGQAKEIDTAICAKTDGCNEARWFSLTTRNVNDGQIQGVINKLWGVDTNYKSVSKFHVFHDSTNFYGSTGNARGQAVVNISNAAFPILMARNDKNYWLAFGEKRAWDKNELAYITEAPSIVRPENVTRETASFNLPFISLGQVGDGKLMVIGNPHYNSILRCPNGYSWNGGVNKDGQCTLNSDPDDMKNFMENVLRYLSNDRWLPDAKSSMTVGTNLETVYFKKHGQVLGNSAPFAFHKDFTGITVKPMTSYGNLNPDEVPLLILNGFEYVTQWGSDPYSIPLRADTSKPKLTQQDVTDLIAYMNKGGSVLIMENVMSNLKEESASGFVRLLDAAGLSMALNKSVVNNDPQGYPDRVRQRRSTPIWVYERYPAVDGKPPYTIDDTTKEVIWKYQQENKPDDKPKLEVASWQEEVEGKQVTQFAFIDEADHKTPESLAAAKQRILDAFPGLEVCKDSDYHYEVNCLEYRPGTDVPVTGGMYVPQYTQLDLSADTAKAMLQAADLGTNIQRLYQHELYFRTNGRQGERLNSVDLERLYQNMSVWLWNETKYRYEEGKEDELGFKTFTEFLNCYTNNAYVGTQCSAELKKSLIDNKMIYGEESSKAGMMNPSYPLNYMEKPLTRLMLGRSWWDLNIKVDVEKYPGVVNTNGETVTQNINLYSAPTKWFAGNMQSTGLWAPAQQEVSIESKSTVPVTVTVALADDLTGREKHEVSLNRPPRVTKTYDLKANDKVTFKVPYGGLIYIKGDSKEVQSADFTFTGVVKAPFYKDGKWQHDLNSPAPLGELESASFVYTTPKKNLNASNYTGGLEQFANDLDTFASSMNDFYGRDSEDGKHRMFTYKNLPGHKHRFANDVQISIGDAHSGYPVMNSSFSPNSTTLPTTPLNDWLIWHEVGHNAAETPLTVPGATEVANNVLALYMQDRYLGKMNRVADDITVAPEYLEESNGQAWARGGAGDRLLMYAQLKEWAEKNFDIKKWYPDGTPLPEFYSEREGMKGWNLFQLMHRKARGDEVSNDKFGGKNYCAESNGNAADTLMLCASWVAQTDLSEFFKKWNPGANAYQLPGASEMSFEGGVSQSAYNTLASLDLPKPEQGPETINQVTEHKMSAE",glycan array binding signal (z-score),Gal6S(b1-4)Glc6S,-0.07
same,glycan array binding signal (z-score),Gal6S(b1-4)GlcNAc,1.31
same,glycan array binding signal (z-score),Gal6S(b1-4)GlcNAc6S,-0.024
same,glycan array binding signal (z-score),GalNAc(a1-3)Gal,0.563
same,glycan array binding signal (z-score),GalNAc(a1-3)GalNAc,0.791
same,glycan array binding signal (z-score),[1],-0.377
same,glycan array binding signal (z-score),[2],-0.101
same,glycan array binding signal (z-score),GalNAc(b1-3)Gal,1.19
same,glycan array binding signal (z-score),[3],0.022
same,glycan array binding signal (z-score),[4],-1.3
same,glycan array binding signal (z-score),[5],-1.22
same,glycan array binding signal (z-score),GalNAc(b1-3)GalNAc,-1.25
same,glycan array binding signal (z-score),GalNAc(b1-3)GlcNAc,0.327
same,glycan array binding signal (z-score),GalNAc(b1-4)Gal(b1-4)Glc,-0.229
same,glycan array binding signal (z-score),GalNAc(b1-4)GlcNAc,1.36
same,glycan array binding signal (z-score),[6],0.931
same,glycan array binding signal (z-score),[7],-0.678
same,glycan array binding signal (z-score),[8],-1.25
same,glycan array binding signal (z-score),GalNAc(b1-4)GlcNAc6S,0.943
same,glycan array binding signal (z-score),GalNAc(b1-6)GalNAc,0.476
same,glycan array binding signal (z-score),GalNAc3S(b1-4)GlcNAc,-0.046
same,glycan array binding signal (z-score),GalNAc3S(b1-4)GlcNAc3S,0.646
same,glycan array binding signal (z-score),[9],-1.21
same,glycan array binding signal (z-score),GalNAc4S6S(b1-4)GlcNAc,0.652
same,glycan array binding signal (z-score),GalNAc6S(b1-4)GlcNAc,-0.921
same,glycan array binding signal (z-score),Glc(a1-4)Glc,0.052
same,glycan array binding signal (z-score),[10],-0.083
same,glycan array binding signal (z-score),Glc(a1-6)Glc(a1-6)Glc,0.381
same,glycan array binding signal (z-score),[11],-0.108
same,glycan array binding signal (z-score),Glc(b1-4)Glc,0.009
same,glycan array binding signal (z-score),Glc(b1-6)Glc,-1.37
same,glycan array binding signal (z-score),GlcA(b1-3)Gal,0.159
same,glycan array binding signal (z-score),GlcA(b1-3)GlcNAc,-0.711
same,glycan array binding signal (z-score),GlcA(b1-6)Gal,-0.477
same,glycan array binding signal (z-score),[12],0.196
same,glycan array binding signal (z-score),[13],-0.029
same,glycan array binding signal (z-score),[14],-0.227
same,glycan array binding signal (z-score),[15],-0.585
same,glycan array binding signal (z-score),[16],0.447
same,glycan array binding signal (z-score),[17],0.005
same,glycan array binding signal (z-score),[18],-1.28
same,glycan array binding signal (z-score),[19],-0.395
same,glycan array binding signal (z-score),[20],-0.709
same,glycan array binding signal (z-score),[21],2.04
same,glycan array binding signal (z-score),[22],-0.394

# Some of the entries above in a different format:
binder	measurement	setting	value
YghJ (Escherichia coli), E3PJ90 (protein) MNKKFKYKKSLLAAILSATLLAGCDGGGSGSSSDTPPVDSGTGSLPEVKPDPTPNPEPTPEPTPDPEPTPEPIPDPEPTPEPEPEPVPTKTGYLTLGGSQRVTGATCNGESSDGFTFKPGEDVTCVAGNTTIATFNTQSEAARSLRAVEKVSFSLEDAQELAGSDDKKSNAVSLVTSSNSCPANTEQVCLTFSSVIESKRFDSLYKQIDLAPEEFKKLVNEEVENNAATDKAPSTHTSPVVPVTTPGTKPDLNASFVSANAEQFYQYQPTEIILSEGRLVDSQGYGVAGVNYYTNSGRGVTGENGEFSFSWGEAISFGIDTFELGSVRGNKSTIALTELGDEVRGANIDQLIHRYSTTGQNNTRVVPDDVRKVFAEYPNVINEIINLSLSNGATLGEGEQVVNLPNEFIEQFNTGQAKEIDTAICAKTDGCNEARWFSLTTRNVNDGQIQGVINKLWGVDTNYKSVSKFHVFHDSTNFYGSTGNARGQAVVNISNAAFPILMARNDKNYWLAFGEKRAWDKNELAYITEAPSIVRPENVTRETASFNLPFISLGQVGDGKLMVIGNPHYNSILRCPNGYSWNGGVNKDGQCTLNSDPDDMKNFMENVLRYLSNDRWLPDAKSSMTVGTNLETVYFKKHGQVLGNSAPFAFHKDFTGITVKPMTSYGNLNPDEVPLLILNGFEYVTQWGSDPYSIPLRADTSKPKLTQQDVTDLIAYMNKGGSVLIMENVMSNLKEESASGFVRLLDAAGLSMALNKSVVNNDPQGYPDRVRQRRSTPIWVYERYPAVDGKPPYTIDDTTKEVIWKYQQENKPDDKPKLEVASWQEEVEGKQVTQFAFIDEADHKTPESLAAAKQRILDAFPGLEVCKDSDYHYEVNCLEYRPGTDVPVTGGMYVPQYTQLDLSADTAKAMLQAADLGTNIQRLYQHELYFRTNGRQGERLNSVDLERLYQNMSVWLWNETKYRYEEGKEDELGFKTFTEFLNCYTNNAYVGTQCSAELKKSLIDNKMIYGEESSKAGMMNPSYPLNYMEKPLTRLMLGRSWWDLNIKVDVEKYPGVVNTNGETVTQNINLYSAPTKWFAGNMQSTGLWAPAQQEVSIESKSTVPVTVTVALADDLTGREKHEVSLNRPPRVTKTYDLKANDKVTFKVPYGGLIYIKGDSKEVQSADFTFTGVVKAPFYKDGKWQHDLNSPAPLGELESASFVYTTPKKNLNASNYTGGLEQFANDLDTFASSMNDFYGRDSEDGKHRMFTYKNLPGHKHRFANDVQISIGDAHSGYPVMNSSFSPNSTTLPTTPLNDWLIWHEVGHNAAETPLTVPGATEVANNVLALYMQDRYLGKMNRVADDITVAPEYLEESNGQAWARGGAGDRLLMYAQLKEWAEKNFDIKKWYPDGTPLPEFYSEREGMKGWNLFQLMHRKARGDEVSNDKFGGKNYCAESNGNAADTLMLCASWVAQTDLSEFFKKWNPGANAYQLPGASEMSFEGGVSQSAYNTLASLDLPKPEQGPETINQVTEHKMSAE	glycan array binding signal (z-score)	Glc(b1-6)Glc	-1.37
same	glycan array binding signal (z-score)	GlcA(b1-3)Gal	0.159
